In article PMC7029496:
Results are given in words; binding and its absence hold for the method and conditions named. A result given as binding can be weak or reduced; the word gives no strength. Where a sequence is shown, tags or fusion partners need not be part of it.

Tests used:
[1] = molecular target: T1, XC_1359 (PilU), bacterial two-hybrid fusion (Xanthomonas campestris pv. campestris strain 8004) (UniProt Q8P759); assay: two-hybrid; BacterioMatch II bacterial two-hybrid in E. coli XL1-Blue MRF′; pilG and pilH in pTRG (prey), fliN in pBT (bait); growth on double-selective plates with 5 mM 3-AT and 12.5 μg/ml streptomycin
T1 sequence: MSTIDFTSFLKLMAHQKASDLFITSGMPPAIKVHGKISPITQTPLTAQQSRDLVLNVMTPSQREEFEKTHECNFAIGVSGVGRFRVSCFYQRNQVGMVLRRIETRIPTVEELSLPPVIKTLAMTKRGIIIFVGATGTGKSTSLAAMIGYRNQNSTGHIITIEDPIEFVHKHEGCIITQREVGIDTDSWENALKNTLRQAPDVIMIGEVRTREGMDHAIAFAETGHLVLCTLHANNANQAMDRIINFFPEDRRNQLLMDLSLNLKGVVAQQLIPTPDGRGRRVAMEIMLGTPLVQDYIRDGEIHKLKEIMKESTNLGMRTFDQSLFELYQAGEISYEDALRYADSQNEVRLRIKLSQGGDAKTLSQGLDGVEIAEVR

[2] = molecular target: T2, XC_4031 (PhoP), bacterial two-hybrid fusion (Xanthomonas campestris pv. campestris strain 8004) (UniProt Q7CLM6); assay: as above
T2 sequence: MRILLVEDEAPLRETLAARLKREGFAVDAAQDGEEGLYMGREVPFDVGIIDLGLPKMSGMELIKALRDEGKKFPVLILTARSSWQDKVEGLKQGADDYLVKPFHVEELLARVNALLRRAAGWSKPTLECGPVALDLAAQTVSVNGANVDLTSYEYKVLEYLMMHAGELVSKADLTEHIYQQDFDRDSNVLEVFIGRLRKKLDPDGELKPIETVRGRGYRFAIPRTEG

| Substance | binding [1] | binding [2] |
| --- | --- | --- |
| PilG, bacterial two-hybrid fusion from pTRGpilG | binds | – |
| PilH, bacterial two-hybrid fusion from pTRGpilH | – | binds |
